{
  "sequences": {"note": "Protein sequences, listed by entry. Tags and fused reporters are not part of them.", "UniProt O43557": "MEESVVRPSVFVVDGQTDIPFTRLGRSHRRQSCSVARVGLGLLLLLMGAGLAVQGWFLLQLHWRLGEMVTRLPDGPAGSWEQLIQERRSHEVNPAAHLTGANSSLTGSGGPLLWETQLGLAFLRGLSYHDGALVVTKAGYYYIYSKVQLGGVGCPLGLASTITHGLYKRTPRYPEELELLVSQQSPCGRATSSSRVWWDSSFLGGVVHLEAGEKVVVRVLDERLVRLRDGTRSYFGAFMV"},
  "source": "patent US20210284747A1",
  "binders": {"B1": {"name": "3C10 chimeric IgG4 mAb (antibody, V domains shown)", "VH": "EVQLQQSGAELVRPGASVTLSCKASDYTFTDSEIHWVKQTPVHGLEWIGEIDPETGGTAYNQKFKGKATLTADKSSSTAYMELRSLTSEDSAVYYCSRETDYFFDYWGQGTTLTVSS", "VL": "DVVMTQTPAIMSASPGEKVTMTCSASSSVSYMYWYQQKPGSSPRLLIYDTSNLASGVPVRFSGSGSGTSYSLTISRMEAEDAATYYCQQWSSYPLTFGAGTKLELK"}, "B2": {"name": "3B04 chimeric IgG4 mAb (antibody, V domains shown)", "VH": "B1 VH with E1Q, S7P, D26G, S32Y, I34M, G57D, N61S, L83F", "VL": "DIQMTQTPASLSASVGETVTITCGASENIYGALNWYQRKQGKSPQLLIYGATNLADGMSSRFSGSGSGRQYSLKISSLHPDDFATYYCQNVLTTPWTFGGGTKLEIK"}, "B3": {"name": "3A07 chimeric IgG4 mAb (antibody, V domains shown)", "VH": "B1 VH with E1Q, S17P", "VL": "B1 VL with D1E, V2N, M4L, T7S, K38R, A99S, L105I"}, "B4": {"name": "3D12 chimeric IgG4 mAb (antibody, V domains shown)", "VH": "B1 VH with E1Q, S7P", "VL": "B2 VL with T7S, F83V, T93S"}, "B5": {"name": "2B11 chimeric IgG4 mAb (antibody, V domains shown)", "VH": "EVQLVESGAELVRPGVSVKISCKGSGYTFTDYAIHWVKQSHAKSLEWIGVISTYYGDASYNQKFKGKATMTVDKSSSTAYMELARLTSEDSAIYYCARSRGEYGNYDAMDYWGQGTSVTVSS", "VL": "DIVLTQSPASLAVSLGQRATISCRASESVDSYGNSFMHWYQQKPGQPPKLLIYRASNLESGIPARFSGSGSRTDFTLTINPVEADDVATYYCQQSNEDPYTFGGGTKLEIK"}},
  "note": "Changes are numbered by the printed parent chain. No constants are given. Whether binding was seen depends on the method and setting. Some binding calls cover weakened binding; strength is not graded here.",
  "data": [
    {"target": "Human LIGHT stably expressed on EL4 cells (EL4-LIGHT) (human) (UniProt O43557)", "test": "flow cytometry on EL4-LIGHT cells, 40 min 4 C, Alexa Fluor 647 goat anti-human IgG F(ab')2 specific detection", "values": [
      {"binder": "B1", "binding": "binds"},
      {"binder": "B2", "binding": "binds"},
      {"binder": "B3", "binding": "binds"}
    ]},
    {"target": "Native LIGHT on stimulated human donor blood cells (human) (UniProt O43557)", "test": "flow cytometry, stimulated CD8 T cells", "values": [
      {"binder": "B1", "binding": "binds"},
      {"binder": "B2", "binding": "binds"},
      {"binder": "B4", "binding": "binds"},
      {"binder": "B5", "binding": "binds"},
      {"binder": "B3", "binding": "binds"}
    ]},
    {"target": "Human LIGHT stably expressed on EL4 cells (EL4-LIGHT) (human) (UniProt O43557)", "test": "flow cytometry on EL4-LIGHT cells", "values": [
      {"binder": "B2", "binding": "binds"},
      {"binder": "B4", "binding": "binds"}
    ]},
    {"target": "Human LIGHT stably expressed on EL4 cells (EL4-LIGHT) (human) (UniProt O43557)", "test": "flow cytometry, EL4-LIGHT cells", "values": [
      {"binder": "B1", "binding": "binds"},
      {"binder": "B2", "binding": "binds"},
      {"binder": "B4", "binding": "binds"},
      {"binder": "B5", "binding": "binds"},
      {"binder": "B3", "binding": "binds"}
    ]},
    {"target": "Human LIGHT stably expressed on EL4 cells (EL4-LIGHT) (human) (UniProt O43557)", "test": "flow cytometry on EL4-LIGHT cells, 40 min 4 C, Alexa Fluor 647 goat anti-human IgG F(ab')2 specific detection [cont.]", "values": [
      {"binder": "B4", "binding": "binds"},
      {"binder": "B5", "binding": "binds"}
    ]},
    {"target": "Native LIGHT on stimulated human donor blood cells (human) (UniProt O43557)", "test": "flow cytometry on anti-CD3/anti-CD28 stimulated human donor CD8 T cells, APC signal", "values": [
      {"binder": "B1", "binding": "binds"},
      {"binder": "B2", "binding": "binds"},
      {"binder": "B4", "binding": "binds"},
      {"binder": "B5", "binding": "binds"},
      {"binder": "B3", "binding": "binds"}
    ]},
    {"target": "Native LIGHT on stimulated human donor blood cells (human) (UniProt O43557)", "test": "flow cytometry, APC-labelled mAbs on stimulated donor cells; also CD4 cells, neutrophils, monocytes, macrophages", "values": [
      {"binder": "B1", "binding": "binds"},
      {"binder": "B2", "binding": "binds"},
      {"binder": "B4", "binding": "binds"},
      {"binder": "B5", "binding": "binds"},
      {"binder": "B3", "binding": "binds"}
    ]},
    {"target": "Human LIGHT stably expressed on EL4 cells (EL4-LIGHT) (human) (UniProt O43557)", "test": "flow cytometry competition on EL4-LIGHT cells; blocked ligand DcR3-Fc-AF647 0.8 ug/ml", "values": [
      {"binder": "B2", "binding": "binds"},
      {"binder": "B4", "binding": "binds"},
      {"binder": "B5", "binding": "binds"}
    ]}
  ]
}
